From paper PMC10826163
No constants are given. Whether binding was seen depends on the method and setting. In cells and extracts the contact can be indirect. A yes stands for co-enrichment or nearness to the bait. Other partners may have been found.

The binders below were run against Traf2-and NcK-interacting kinase (rat (endogenous in rat hippocampus)) (assay: affinity purification with mass spectrometry; anti-TNIK immunoprecipitate from rat hippocampal lysate (control: normal mouse IgG), SDS-PAGE, silver stain, bands seen only in the TNIK Co-IP cut out, trypsin digest, LC-MS/MS, Mascot against UniProt Rattus norvegicus, score >=20).

Row | binding | Binder
1 | binds | Plasminogen receptor (KT) (protein, UniProt D4ACN8 1-147) MGFIFSKSMNENMKNQQEFMVMHARLQLERQLIMQNEMRERQMAMQIAWSREFLKYFGTFFGIATISLAAGAIKRKKPAFLIPIVPLSFIFTYQYDLGYGTLLQRMKSEAEDILETEKTKLELPKGLITFESLEKARREQSKFFSDK
2 | binds | Tripartite motif protein 45 (predicted), isoform CRA_b (protein, UniProt D4A7S9 1-579) MSENRKPLPGFVNKLQDASASGSSGKTHCPSCLRLFKVPRLLPCLHTVCTSCLERLDPFSVVDIRGGDSDTSSEGSIFQEPKSCSLKPQIGILCPVCDAQVDLPLGGVKALTVDHLAMNDVMLESLHGEGQGLVCDLCSDREVEKRCQTCKANLCHFCCQAHRRQKKTTDHTMVDLKDLKGYSRVGKPILCPSHPAEELRLFCELCDRPVCRDCVVGEHREHPYDFTSNVIHKHGDSVRELLRDTQPHVEALEDALAQIKSSNNALQERVEAVAADVRTFSEGYIRAIEEHRDKLLRQLDDIRVQKENSLQLQKAQLEQLLADMRTGVEFTEHLLTSGSDLEILVTKGVVVERLRKLNKVEYSARPGVNHKICFSPQEKARCQGYEVYGAINTQEVDPAQCVLQGEDLHRAREKQTASFTLVCKDATGESMSRGGDNVRVEVVPKNKKDSPIRTVVQDNKDGSYRVSYTPKEPGVYTVWVGIREQQVQGSPFNVTVRRKHRPHPGVFHCCTFCSSGGQKTARCACGGTMPGGYLGCGHGHKGHPGRPHWSCCGKFIEKSECSYSTGQSAPRSLLRTVAL
3 | binds | CTTNBP2 N-terminal like (predicted), isoform CRA_a (protein, UniProt D4A8X8 1-638) MNLEKLSKPELLTLFSILEGELEARDLVIEALKAQHRDTFIEERYGKYNISDPLMALQRDFETLKEKNDSEKQPVCTNPLSILKAVMKQCKNMQERMLSQLAAAESRHRKVILDLEEERQRHAQDTAEGDDVTYMLEKERERLTQQLEFEKSQVKKFEKEQKKLSSQLEEERSRHKQLSSMLVLECKKATSKAAEEGQKAGELSLKLEKEKSRASKLEEELAAERKRGLQTEAQVEKQLSEFDIEREQLRAKLNREENRTRALKEEMESLKKLVKDLEAAQQHSNSSEQGREPVTTSRGTATEPPMRVSVFCQTESIQTERSHSSIMTKLTDTGLPGPSSAPYPYAKANGHCDPETQTTRELTSDSSTENQGPPREKSAVPAQEKPMENGGCPVGTEIPVTMPSHLPSSGSSLSPSSTASSSLTSSPCSSPVLTKRLLGSSVSSPGYQSSYQVGVNQRFHAARHRFQSQADQDQQASGLQSPPSRDLSPTLLDNSAAKQLARNTVTQVLSRFTNQGPIKPVSPNSSPFGTDYRNLVSTANPRGDTSHSPTPGKVSSPLSPLSPGIKSPTIPRAERGNPPPIPPKKPGLTPSQSVATPGTKTHSQASSLTTTEDLASSCSPSAVVANGKDVEMLVPTSS
